{
  "sequences": {"note": "The chains behind the UniProt entries cited, without tags or fusion partners. Where a name states a change or a piece, a line headed by the entry shows the natural chain unless it says otherwise. A line that says so, or that is headed by a name, gives the form on record, which may keep a tag or linker.", "Mdm2, expressed in cells (Q00987-11, form named)": "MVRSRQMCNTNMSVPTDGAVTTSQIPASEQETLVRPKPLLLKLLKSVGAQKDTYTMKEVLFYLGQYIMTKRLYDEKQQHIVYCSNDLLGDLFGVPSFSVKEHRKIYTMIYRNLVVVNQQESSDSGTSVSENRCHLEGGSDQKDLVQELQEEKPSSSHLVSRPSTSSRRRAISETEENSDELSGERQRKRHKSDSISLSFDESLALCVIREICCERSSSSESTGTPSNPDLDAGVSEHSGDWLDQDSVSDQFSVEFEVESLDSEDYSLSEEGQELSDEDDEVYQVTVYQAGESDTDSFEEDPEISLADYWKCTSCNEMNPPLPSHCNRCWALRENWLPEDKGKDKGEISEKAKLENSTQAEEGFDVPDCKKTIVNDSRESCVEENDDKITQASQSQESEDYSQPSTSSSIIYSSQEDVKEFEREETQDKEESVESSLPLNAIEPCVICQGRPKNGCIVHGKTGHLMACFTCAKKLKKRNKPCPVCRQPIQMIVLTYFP", "Mdm2-mut (F255A-Y282A-Y287A mutant) (Q00987-11, form named)": "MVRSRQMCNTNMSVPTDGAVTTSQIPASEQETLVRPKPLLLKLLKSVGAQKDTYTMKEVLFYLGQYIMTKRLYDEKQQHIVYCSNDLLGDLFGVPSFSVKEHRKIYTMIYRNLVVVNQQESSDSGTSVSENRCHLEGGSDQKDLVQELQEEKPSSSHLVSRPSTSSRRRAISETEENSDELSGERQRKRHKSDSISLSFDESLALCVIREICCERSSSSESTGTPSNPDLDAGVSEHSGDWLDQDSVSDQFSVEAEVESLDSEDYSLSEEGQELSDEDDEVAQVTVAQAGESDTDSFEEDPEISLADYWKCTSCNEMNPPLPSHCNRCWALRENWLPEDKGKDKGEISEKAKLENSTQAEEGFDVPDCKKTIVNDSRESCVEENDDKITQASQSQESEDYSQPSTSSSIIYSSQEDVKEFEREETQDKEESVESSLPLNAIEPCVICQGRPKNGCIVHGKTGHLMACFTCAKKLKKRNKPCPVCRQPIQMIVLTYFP"},
  "source": "paper PMC5800818",
  "assay_in_all_cases": "co-IP; HEK293 cells cotransfected with Mdm2 constructs and FLAG-tagged Numb constructs; anti-FLAG IP, immunoblot; in Fig. 1 A with siRNA against p53 or control oligonucleotides",
  "key": {"[1]": {"target": "T1, FLAG-tagged Numb isoform-2 (human) (UniProt P49757)", "T1 sequence": "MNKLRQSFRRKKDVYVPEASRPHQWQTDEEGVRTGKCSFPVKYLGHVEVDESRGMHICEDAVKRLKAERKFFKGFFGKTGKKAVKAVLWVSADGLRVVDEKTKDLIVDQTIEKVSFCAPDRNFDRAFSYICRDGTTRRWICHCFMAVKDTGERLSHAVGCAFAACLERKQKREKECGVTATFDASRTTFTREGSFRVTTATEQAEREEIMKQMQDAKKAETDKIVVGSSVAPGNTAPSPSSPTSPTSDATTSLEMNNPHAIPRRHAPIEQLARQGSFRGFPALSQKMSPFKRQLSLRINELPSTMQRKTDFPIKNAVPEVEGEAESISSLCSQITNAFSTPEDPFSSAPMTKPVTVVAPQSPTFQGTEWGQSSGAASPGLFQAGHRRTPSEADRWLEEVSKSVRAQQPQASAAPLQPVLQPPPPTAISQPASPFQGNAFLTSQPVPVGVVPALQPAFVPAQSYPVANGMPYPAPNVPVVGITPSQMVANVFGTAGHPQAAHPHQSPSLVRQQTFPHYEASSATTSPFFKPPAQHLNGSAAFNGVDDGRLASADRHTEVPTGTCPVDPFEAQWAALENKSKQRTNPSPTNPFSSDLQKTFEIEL"}, "[2]": {"target": "T2, FLAG–Numb-1 (human Numb isoform-1, full length) (human) (UniProt P49757)", "T2 sequence": "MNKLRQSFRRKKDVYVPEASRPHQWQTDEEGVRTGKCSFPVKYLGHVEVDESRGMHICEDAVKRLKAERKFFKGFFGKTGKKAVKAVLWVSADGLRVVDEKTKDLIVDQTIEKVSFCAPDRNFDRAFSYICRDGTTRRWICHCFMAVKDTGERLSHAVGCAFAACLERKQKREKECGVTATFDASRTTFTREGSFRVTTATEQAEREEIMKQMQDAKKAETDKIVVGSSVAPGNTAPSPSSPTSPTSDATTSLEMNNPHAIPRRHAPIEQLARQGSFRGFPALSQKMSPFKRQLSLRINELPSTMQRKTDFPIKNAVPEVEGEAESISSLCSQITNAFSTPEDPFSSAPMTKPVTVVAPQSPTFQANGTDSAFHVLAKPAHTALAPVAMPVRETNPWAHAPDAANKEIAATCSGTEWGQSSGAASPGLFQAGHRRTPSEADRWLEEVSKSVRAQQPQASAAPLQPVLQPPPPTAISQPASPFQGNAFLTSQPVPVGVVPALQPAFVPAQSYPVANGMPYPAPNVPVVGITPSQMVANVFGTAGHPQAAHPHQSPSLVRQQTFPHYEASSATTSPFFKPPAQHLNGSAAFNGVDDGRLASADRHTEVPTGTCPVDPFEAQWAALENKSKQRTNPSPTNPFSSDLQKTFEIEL"}, "[3]": {"target": "T3, FLAG-tagged Numb isoform-3 (full length) (human) (UniProt P49757)", "T3 sequence": "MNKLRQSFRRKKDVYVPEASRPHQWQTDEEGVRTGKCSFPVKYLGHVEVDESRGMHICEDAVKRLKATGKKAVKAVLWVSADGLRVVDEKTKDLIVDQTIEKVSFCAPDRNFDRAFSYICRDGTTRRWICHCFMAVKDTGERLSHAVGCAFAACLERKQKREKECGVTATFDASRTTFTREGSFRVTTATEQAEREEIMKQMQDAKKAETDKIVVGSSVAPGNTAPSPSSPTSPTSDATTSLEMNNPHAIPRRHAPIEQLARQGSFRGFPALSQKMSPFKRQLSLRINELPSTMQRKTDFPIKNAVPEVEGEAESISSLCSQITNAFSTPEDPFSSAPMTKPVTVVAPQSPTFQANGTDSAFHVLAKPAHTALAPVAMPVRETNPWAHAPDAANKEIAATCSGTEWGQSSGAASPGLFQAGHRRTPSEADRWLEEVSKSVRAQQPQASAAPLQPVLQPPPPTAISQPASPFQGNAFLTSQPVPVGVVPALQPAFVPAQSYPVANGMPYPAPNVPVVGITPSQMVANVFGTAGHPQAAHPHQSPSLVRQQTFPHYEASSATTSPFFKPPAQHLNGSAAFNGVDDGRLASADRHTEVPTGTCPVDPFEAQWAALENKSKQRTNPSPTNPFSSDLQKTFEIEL"}},
  "note": "Results are given in words; binding and its absence hold for the method and conditions named. Binding seen in cells or lysates may run through a third protein. Some entries that bind do so weakly or less than the wild type. Sequences can lack the tags named with a protein.",
  "data": [
    {"substance": "Mdm2, expressed in cells (from UniProt Q00987-11 1-497)", "values": [
      {"measurement": "binding", "setting": "[1]", "result": "binds"},
      {"measurement": "binding", "setting": "[2]", "result": "binds"},
      {"measurement": "binding", "setting": "[3]", "result": "binds"}
    ]},
    {"substance": "Mdm2-mut (F255A-Y282A-Y287A mutant) (from UniProt Q00987-11 1-497)", "values": [
      {"measurement": "binding", "setting": "[2]", "result": "binds"}
    ]}
  ]
}
